In PubChem BioAssay AID493014 (National Center for Advancing Translational Sciences (NCATS), 2011):
About 170 (0.05%) of roughly 340,000 compounds were called active. The shares of active, inactive and inconclusive entries below differ from those in the screen. Calls come from the whole dose curve; as a rule, active = well fitted inhibition curve with a large enough effect in the signal ratio, with a control signal flat (not every such curve was filed as active); inconclusive = small, poorly fitted or top-dose-only effect, or effect the other way, or a change in a side signal; inactive = flat fitted curve, though single readings scatter; the % refers to the signal ratio. Where the call is inconclusive, the potency comes from a doubtful curve fit.

Assay: qHTS Assay to Find Inhibitors of Chronic Active B-Cell Receptor Signaling;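 for activity change, negative = inhibition: plate controls were basal doxycycline-induced cells for no effect and cells given 10 µM MG132 for full effect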
Conditions: ABC-DLBCL IkBa-CBG/CBR reporter, luminescence ratio (green luciferase fused to IkBa over red control in TMD8 lymphoma cells), 4 h; activity change, negative = inhibition: at 46.1 µM (top of the series) unless noted
Method in brief: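 TMD8 human ABC-DLBCL cells with doxycycline-inducible IκBα–green luciferase fusion and unfused red luciferase, in 0.5% FBS medium; compounds up to 46 uM, 4 h at 37C. Green/red luminescence ratio, filter-overlap corrected, fitted to concentration-response curves.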
Potency is the fitted concentration of half-maximal effect.

Row | SMILES | activity change, negative = inhibition | Potency
1 | COc1cccc(NC(=S)N2CCC(Cc3ccccc3)CC2)c1 | inactive | –
2 | O=C(Nc1ccc(Cl)c(Cl)c1)c1cccnc1 | inconclusive: 1.35% | –
3 | NS(=O)(=O)c1ccc(CCNC(=O)Cc2ccc(S(=O)(=O)N3CCCC3)s2)cc1 | inconclusive: -1.46% | –
4 | O=C(NC1=NCCS1)c1cc2ccccc2o1 | – | inconclusive: 25.1 µM [falling, single point]
5 | COCCN(CCOC)C(=O)c1ccc(SCc2ccc(C)cc2)c([N+](=O)[O-])c1 | inconclusive: 27.8% | –
6 | COc1ccc(CNC(=O)C2CCN(S(=O)(=O)N3CCC(C)CC3)CC2)c(OC)c1 | inconclusive: -14.2% | –
7 | Cc1ccc(CNC(=O)CCC(=O)c2cccs2)cc1 | – | inconclusive: 0.651 µM [falling, partial curve, poor fit]
8 | CC(Sc1nncn1C)C(=O)Nc1nnc(-c2ccccc2)s1 (configuration not stated) | – | inconclusive: 18.4 µM [falling, partial curve, poor fit]
9 | Cc1ccc(C(=O)Oc2ccc(Br)cc2C(=S)N2CCOCC2)cc1 | inactive | –
10 | CCCCN1C(=O)c2ccc(C(=O)NC3(C)CCS(=O)(=O)C3)cc2C1=O (configuration not stated) | inconclusive: 4.18% | –
11 | CCNc1ccc(C(=O)OC(C(=O)NC(N)=O)C(C)C)cc1[N+](=O)[O-] (configuration not stated) | inconclusive: 3.6% | –
12 | Cc1c(C(=O)N(CCC#N)c2ccccc2)sc2nc3n(c(=O)c12)CCCC3 | inactive | –
13 | Cc1cccc(-c2nnc(SCCOc3ccc4c(C)cc(=O)oc4c3)o2)c1 | – | inconclusive: 1.3 µM [rising, full curve, poor fit]
14 | O=C(Nc1ccccc1)c1ccc(Br)c(S(=O)(=O)Nc2ccccn2)c1 | inconclusive: -3.16% | –
15 | COc1ccc2cc(C(=O)N3CCc4ccccc43)[nH]c2c1 | – | inconclusive: 11.2 µM [falling, partial curve]
16 | CCOc1ccc(NC(=O)CN(C)S(=O)(=O)c2ccc(-c3ccc(=O)[nH]n3)s2)cc1 | inconclusive: 2.26% | –
17 | O=C1C(c2ccncc2)=C(O)c2ccccc21 | – | inconclusive: 16.4 µM [falling, partial curve]
18 | O=C(c1nc2ccc(Cl)cn2c1CNCCc1cnccn1)N1CCCCCCC1 | inactive | –
19 | O=C(N/N=C/c1ccc(N2CCOCC2)cc1)c1ccc(NS(=O)(=O)c2cccs2)cc1 | – | inconclusive: 22.4 µM [falling, single point]
20 | CCOc1ccc(-n2cc(-c3ccccc3)c3c(NCc4ccccc4)ncnc32)cc1 | inactive | –
21 | O=C(CN1C(=O)NC2(CCCC2)C1=O)OCc1ccc(F)cc1 | inconclusive: 6.5% | –
22 | Cc1ccc(C(=O)OCC(=O)Nc2cccc(Cl)c2C)c(O)c1 | – | inconclusive: 12.6 µM [falling, partial curve]
23 | COc1ccc(-c2cc(C(F)(F)F)n3ncc(C(=O)N4CCCCC4c4cccnc4)c3n2)cc1 (configuration not stated) | inactive | –
24 | COC(=O)COc1ccc(S(=O)(=O)NCc2ccncc2)cc1 | inconclusive: 5.8% | –
25 | CCCOC(=O)/C(C)=N\NC(=O)c1ccco1 | – | inconclusive: 29.1 µM [falling, single point]
26 | O=[N+]([O-])c1ccc(O)c(NC(=S)Nc2ccccc2)c1 | – | inconclusive: 0.326 µM [rising, full curve, poor fit]

Arranged by SMILES length (ascending): some entries from above.
Row | SMILES | activity change, negative = inhibition | Potency
2 | O=C(Nc1ccc(Cl)c(Cl)c1)c1cccnc1 | inconclusive: 1.35% | –
5 | COCCN(CCOC)C(=O)c1ccc(SCc2ccc(C)cc2)c([N+](=O)[O-])c1 | inconclusive: 27.8% | –
16 | CCOc1ccc(NC(=O)CN(C)S(=O)(=O)c2ccc(-c3ccc(=O)[nH]n3)s2)cc1 | inconclusive: 2.26% | –

Continuation:

Row | SMILES | activity change, negative = inhibition | Potency
27 | Cc1csc(SCC(=O)NCc2cccc(Cl)c2)n1 | inconclusive: 3.95% | –
28 | O=C(CCCCCn1c(=O)[nH]c2ccccc2c1=O)NCCCN1CCN(c2ccccc2F)CC1 | inactive | –
29 | C/C(=N/NC(=O)c1ccncc1)C1=C(O)CC(C)(C)CC1=O | inactive | –
30 | COc1cccc(/C=C/C(=O)NNC(=O)c2ccncc2)c1 | inconclusive: -24.6% | –
31 | CCn1cc(C(=O)NCC(OC)OC)c(=O)c2cc(S(=O)(=O)N3CCC(C)CC3)ccc21 | inconclusive: -0.404% | –
32 | O=C(O)/C=C/c1cccc(NC(=O)c2ccccc2)c1 | inconclusive: -16.1% | –
33 | CCCN(CCC)C(=O)CC(c1ccccc1)c1cc(Br)ccc1O (configuration not stated) | inconclusive: 4.3% | –
34 | COc1ccc(Cc2nnc(NC(=O)CSc3ccccc3)s2)cc1OC | inconclusive: 11.8% | –
35 | CC1(C(=O)O)CCC(C(=O)Nc2ccccc2O)C1(C)C (configuration not stated) | inconclusive: 24.2% | –
36 | COc1ccc(NC(=O)COc2ccccc2Cc2ccccc2)cc1S(=O)(=O)N1CCOCC1 | inactive | –
37 | C[C@]12CC[C@@H]3c4ccc(O)cc4C(=O)C[C@H]3[C@@H]1CC[C@@H]2O | – | inconclusive: 11.2 µM [falling, partial curve]
38 | O=[N+]([O-])c1cccc(S(=O)(=O)N2CCN(c3ccccn3)CC2)c1 | inactive | –
39 | O=C(CCN1C(=O)/C(=C/c2ccccc2Cl)SC1=S)NC1=NCCS1 | – | inconclusive: 10 µM [falling, partial curve]
40 | CC1Cc2ccccc2N1C(=O)COC(=O)c1n[nH]c(=O)c2ccccc12 (configuration not stated) | inconclusive: -6.66% | –
41 | COc1ccc([N+](=O)[O-])c(S(=O)(=O)c2ccc(Cl)cc2)n1 | inconclusive: 28.8% | –
42 | CCOC(=O)c1c(CC(C)C)csc1NC(=O)C(C)C | inconclusive: 10.2% | –
43 | Cc1ccc2c(c1)NC(=O)C(CC(=O)NCCCN1CCN(c3cc(C)ccc3C)CC1)O2 (configuration not stated) | inconclusive: 3.77% | –
44 | COc1ccc2[nH]c3c(c2c1)CCN1C(=O)C(CC(=O)NCCCn2ccnc2)C[C@H](C(=O)N2CCCCC2)[C@@]31C (some centres not stated) | inconclusive: -0.689% | –
45 | COc1cc(CN2CCC(C(=O)N3CCC(C)CC3)CC2)cc(Br)c1O | inconclusive: -4.19% | –
46 | CN(Cc1ccccc1)C(=O)CN1C(=O)NC2(CCCC2)C1=O | inactive | –
47 | CCn1ncc(N2CCOCC2)c(Cl)c1=O | inconclusive: -2.16% | –
48 | O=C1NNC(c2ccccc2)=N/C1=C\c1ccco1 | inactive | –
49 | COn1c(-n2nc(C)cc2C)nc2ccccc2c1=O | inactive | –
50 | O=C(CC1SCCNC1=O)Nc1cccc(Cl)c1 (configuration not stated) | inconclusive: -12.8% | –
51 | Cc1[nH]cnc1C(=O)N/N=C/c1c(Cl)cccc1Cl | – | inconclusive: 22.4 µM [falling, partial curve, poor fit]
52 | COc1cc(/C=N/NC(=O)/C(=C\c2ccc([N+](=O)[O-])cc2)NC(=O)c2ccccc2)cc(OC)c1O | inconclusive: 8.79% | –
